Measurements: PubChem BioAssay AID1508600 (Functional Genomics Laboratory (NCATS/FGL), 2020)
The whole screen tested about 53,000 sequences, of which about 3,700 (7%) were called active.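 How the source made its calls: active means gene knockdowns whose robust z-score for IL-1 alpha signal is at least 2 or at most -2, so actives lie on both sides; inactive means the rest.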 The list shows a part of the results.

assay: Components of the Cytosolic LPS Sensing Pathway: Gene Identification via Genome-wide siRNA Screen; settings: RAW264.7 macrophages, IL-1a HTRF, actives lie on both sides, screened at 100 nM (by protocol), cells primed 5 h with Pam3CSK4 first
Source text: Non-canonical inflammasome activation by cytosolic LPS is a critical component of the host response to Gram-negative bacterial infection, however we lack a comprehensive understanding of the cellular processes that control this pathway. Here we describe a genome-wide siRNA screen to identify genes regulating the mouse macrophage IL-1 alpha response to cytosolic LPS.
RAW264.7 cells were maintained in complete DMEM media, comprising DMEM with 4.5 g/L glucose, 10% FBS (Gemini Bio-Products, West Sacramento, CA), 2 mM Glutamine (Lonza) and 20 mM HEPES (Lonza), hereafter complete DMEM.
The RNAi screen was conducted in 384-well format using the Ambion Silencer Mouse Genome siRNA Library (#4391425), which consists of three unique, nonoverlapping, nonpooled siRNAs for each of 17,000 gene targets. siRNA reagents ([…]) were stamped into 384-well white flat-bottom microplates (Corning, 3570) using a Velocity11 VPrep liquid handling system (Agilent) integrated into a BioCel robotic platform (Agilent) in columns 1-22, leaving columns 23-24 empty for negative (Ambion, Negative control #1) and positive (mouse Casp4) controls, respectively. The median value of each plate's negative control column was used to normalize sample wells, and the positive control was used to assess transfection efficiency and assay performance.
Lipofectamine RNAiMAX Transfection Reagent ([…]; Invitrogen) was added in […] serum-free, antibiotic-free media to plate wells using a Thermo Scientific Matrix WellMate and Microplate Stacker. Plates were incubated for 45 min at room temperature to allow for the sufficient formation of siRNA-lipid complexes. Cells were seeded at a density of 1x10^4 cells per well in 20 microL media containing 20% (vol/vol) FBS without antibiotics. The final concentration of siRNA in each well was 100 nM. Cells were cultured for 48h at 37 degrees C in 5% CO2 before addition of […] of TLR ligand Pam3CSK4 for 5 hours. The medium was then removed, replaced with […] growth media and cell were transfected with […] of LipidA and TransIT-TKO (Mirus) for 24 hour. At the end of the LipidA treatment, […] of supernatant was transferred to a 384 Greiner Bio-one non-binding low volume plate and […] of IL-1a HTRF reagent (Cisbio, 62MIL1APEH) was added and incubated at room temperature overnight. The plates were read on an EnVision plate reader (PerkinElmer). Cell viability was measured by adding 20ul Cell Titer Glo to the original plate and running a luminescence read on the EnVision. The quantified IL-1a signal for each siRNA gene-targeted well was divided by the median of the negative control wells and multiplied by 100 to achieve a negative control normalized value for each well/siRNA. This normalized value was then used to generate a robust z-score by first taking the log of each value and then by subtracting the median and dividing by the […].

z-score, active:
GGUCUUCAUCUGUCCAACUTT against Tmlhe -2.09
GGCAAAACAUGCUUGGACCTT against Zfp687 2.31
GGUGAGUAUAUUCAAGUUATT against Ndor1 4.36

z-score, inactive:
GGUCAAAGUGUAACUUGUUTT against Rwdd4a -0.0956
GGUUUUAGGAGAACUGUCATT against Twnk 0.0265
GCAAGGGUUUGGUAGUAGGTT against Nup188 0.324
GGCUUAGUGCCUCUAAAAGTT against Aqp6 0.749
GGCUCAAAGGCUACAGCAATT against Ctsw -1.8
GGAUUUUUUGAUUACUGUGTT against Oca2 -0.359
GGGUCUCAAAAGAGCAGGUTT against Neurl1a 1.67
GGACCUGUGGUUGUUGUUCTT against Tll2 0.294
GGUGGUAAAGACGAUUGGCTT against Ezr -0.209
GGCUGACUCGCUUUCACCATT against Efna2 0.522
CCCUCAUGUUUCAUUUGUGTT against Glrx3 -0.454
CCAAAUACGACUUACGAAATT against Ncam2 0.246
GCUAAAUCCUUGACACCCATT against Fam161a -1.42
GCAAAGUUAUUUCGCUUGGTT against Mgst2 0.61
GGCAUGGACAAAGAGAAGGTT against Nol6 -1.17
GGCAGUAGUUAGCAAAUAUTT against Ska1 -1.24
GCCAAUCAAAUCAACCAUATT against Ints6 -1.21
GGUGAGACAGAUAAAGUUCTT against Olfr1124 1.15
GGAGUUUGUGGAUGACUUUTT against Clip1 0.767
GGUUUUUACUUUUUGGUCCTT against Pllp -0.07
GGUUUUUUACACAACAUGCTT against Lgalsl 0.952
GUUUCGAUUAUGUUAAAGCTT against Rasl10a 0.683
GGCUAAAAAAGUCUCAGCCTT against Pbx2 -0.536
GCUUGUGCGGGUGAUAGACTT against Pars2 1.97
GGAGAUUGAGAAGUUUCUATT against Gpn3 1.87
GGAGGACGAGAACAGUAAGTT against Sap30bp 0.0387
GCUAUAGUUCUCUUUAGUCTT against Nr2c2 0.837
GGACAUGUAUAAGAAGAUGTT against Itpka -0.25
GGCUGGACUUUCAGCUGAUTT against Sema6d 0.993
GAUUGCCAAAGACAAAAGCTT against Vmn1r212 0.401
GCUUAGACUCACCAAAGGCTT against Gpr26 0.475
GGAGCUGGACGACUACUAUTT against Ing1 -0.0369
CCCACUGAUGAUUACGUUCTT against Irf5 -0.247
GGUGAUCUUAGUGGAGGGCTT against Ppox 0.854
GGGUAAAAGUAGCUGCCCUTT against Trp53inp2 -0.401
GGCUCCAGAAGGAACUUUCTT against Socs2 -0.317
GGACAAGAAGCAUCUUUCATT against Smpdl3a -1.16
CCCAGCUCUGUUUAAUGAUTT against Klf8 -0.449
CCAACUCGUGAUUCUAGACTT against Tmed10 1.27
GGGCUUACCGUAUAACUUUTT against Nptn 1.4
GGUCCUACUAUAACCUGCGTT against Gdf3 -0.103
GGAGGGAAGAAACAAUCUATT against Rnf40 0.497
GGAAACUAUGGGCAAGUAATT against Olfr1239 0.153
GGUCAUCAAAUUCCUAAUCTT against Lrrc8c 0.116
CCUUAGACUGUUCAGUCCUTT against Spryd4 0.233
AAAAGCUUCACCUAACUAUTT against Ascc1 1.73
GGUGACUCGGCUAUUUUCCTT against Ccdc22 0.756
GGCAGCUGAUUUUUGAUGATT against Agbl2 -1
GGUUUUACCACAGAUUUGCTT against Olfr263 0.606
GGCUUCUAUUUGUUUCCUGTT against Cbl 0.353
GGUCAUAUAGGGAUACUUATT against Dhrs2 -1.13
GGAAACCAUUGAAGAUGUUTT against Psmd13 -1.2
AAUCCAAGGGCCGGCCUCATT against Hs3st6 -0.726
GGCAUGAUCAUGCAUGUGATT against Hils1 0.707
GGCUACCAGAAAGAUGUGUTT against Cdcp2 -0.0624
CGGUUUCAGUCUUUUGGAUTT against Cd84 -0.0778
GGGAAUCCAUUAUUGCUGATT against Spata32 -0.199
GGUGAUGUAUUAUUAUCCATT against Defb12 0.277
GGCCCUUUAUUUUGAGUACTT against Cp -0.749
GCAUGUUAGGUGCUGUGCATT against Slc35e2 0.659
GCAUAGUAGGAUCUGUCUUTT against Tdpoz5 0.26
GGAAUCCUGCUGUGGUGUUTT against Cyp2c65 1
GCGAUGAUGUACAAAAGGGTT against Jph3 -0.156
CGGUUCCAUUCUACAUUUUTT against Scpep1 0.541
GGGUUUUUGUGGGUCUAGGTT against Lta 0.236
GCAGCUGGAUAUCAUAAAATT against Ccdc162 -1.27

Quoted at random: two records from the list.
z-score, inactive:
GAUUGCCAAAGACAAAAGCTT against Vmn1r212 0.401
GGUUUUUUACACAACAUGCTT against Lgalsl 0.952
